The subject of this test is α1A‐AR A4. The settings on record: 500 μmol/L ligand, 5 μmol/L receptor in DDM, with and without 10 μmol/L prazosin; controls DDM alone and enNTS1.

The structures appear in SMILES notation.

Take `CN1C(=O)CN=C(c2ccccc2)c2cc(Cl)ccc21` [diazepam]: the “STD NMR signals, interpretation” value was “nonspecific interactions with detergent micelles”.

The record behind these values is publication PMC6306559, “Diazepam is not a direct allosteric modulator of α1‐adrenoceptors, but modulates receptor signaling by inhibiting phosphodiesterase‐4” (Pharmacology Research & Perspectives, 2018).
